The experiment addresses FLAG-tagged endogenous NIPBL (human (endogenous in the FLAG-NIPBL cells)) (UniProt Q6KC79). The experiment is described as follows: co-IP; nuclear fraction of cells expressing endogenous FLAG-tagged NIPBL; NIPBL precipitated with antibodies against FLAG or NIPBL; controls: NIPBL siRNA, cells without the FLAG tag; cells untreated or treated with triptolide; blots of RPB1 and MAU2.

Amino acid sequences for entries named in this document (tags omitted).
UniProt Q6KC79: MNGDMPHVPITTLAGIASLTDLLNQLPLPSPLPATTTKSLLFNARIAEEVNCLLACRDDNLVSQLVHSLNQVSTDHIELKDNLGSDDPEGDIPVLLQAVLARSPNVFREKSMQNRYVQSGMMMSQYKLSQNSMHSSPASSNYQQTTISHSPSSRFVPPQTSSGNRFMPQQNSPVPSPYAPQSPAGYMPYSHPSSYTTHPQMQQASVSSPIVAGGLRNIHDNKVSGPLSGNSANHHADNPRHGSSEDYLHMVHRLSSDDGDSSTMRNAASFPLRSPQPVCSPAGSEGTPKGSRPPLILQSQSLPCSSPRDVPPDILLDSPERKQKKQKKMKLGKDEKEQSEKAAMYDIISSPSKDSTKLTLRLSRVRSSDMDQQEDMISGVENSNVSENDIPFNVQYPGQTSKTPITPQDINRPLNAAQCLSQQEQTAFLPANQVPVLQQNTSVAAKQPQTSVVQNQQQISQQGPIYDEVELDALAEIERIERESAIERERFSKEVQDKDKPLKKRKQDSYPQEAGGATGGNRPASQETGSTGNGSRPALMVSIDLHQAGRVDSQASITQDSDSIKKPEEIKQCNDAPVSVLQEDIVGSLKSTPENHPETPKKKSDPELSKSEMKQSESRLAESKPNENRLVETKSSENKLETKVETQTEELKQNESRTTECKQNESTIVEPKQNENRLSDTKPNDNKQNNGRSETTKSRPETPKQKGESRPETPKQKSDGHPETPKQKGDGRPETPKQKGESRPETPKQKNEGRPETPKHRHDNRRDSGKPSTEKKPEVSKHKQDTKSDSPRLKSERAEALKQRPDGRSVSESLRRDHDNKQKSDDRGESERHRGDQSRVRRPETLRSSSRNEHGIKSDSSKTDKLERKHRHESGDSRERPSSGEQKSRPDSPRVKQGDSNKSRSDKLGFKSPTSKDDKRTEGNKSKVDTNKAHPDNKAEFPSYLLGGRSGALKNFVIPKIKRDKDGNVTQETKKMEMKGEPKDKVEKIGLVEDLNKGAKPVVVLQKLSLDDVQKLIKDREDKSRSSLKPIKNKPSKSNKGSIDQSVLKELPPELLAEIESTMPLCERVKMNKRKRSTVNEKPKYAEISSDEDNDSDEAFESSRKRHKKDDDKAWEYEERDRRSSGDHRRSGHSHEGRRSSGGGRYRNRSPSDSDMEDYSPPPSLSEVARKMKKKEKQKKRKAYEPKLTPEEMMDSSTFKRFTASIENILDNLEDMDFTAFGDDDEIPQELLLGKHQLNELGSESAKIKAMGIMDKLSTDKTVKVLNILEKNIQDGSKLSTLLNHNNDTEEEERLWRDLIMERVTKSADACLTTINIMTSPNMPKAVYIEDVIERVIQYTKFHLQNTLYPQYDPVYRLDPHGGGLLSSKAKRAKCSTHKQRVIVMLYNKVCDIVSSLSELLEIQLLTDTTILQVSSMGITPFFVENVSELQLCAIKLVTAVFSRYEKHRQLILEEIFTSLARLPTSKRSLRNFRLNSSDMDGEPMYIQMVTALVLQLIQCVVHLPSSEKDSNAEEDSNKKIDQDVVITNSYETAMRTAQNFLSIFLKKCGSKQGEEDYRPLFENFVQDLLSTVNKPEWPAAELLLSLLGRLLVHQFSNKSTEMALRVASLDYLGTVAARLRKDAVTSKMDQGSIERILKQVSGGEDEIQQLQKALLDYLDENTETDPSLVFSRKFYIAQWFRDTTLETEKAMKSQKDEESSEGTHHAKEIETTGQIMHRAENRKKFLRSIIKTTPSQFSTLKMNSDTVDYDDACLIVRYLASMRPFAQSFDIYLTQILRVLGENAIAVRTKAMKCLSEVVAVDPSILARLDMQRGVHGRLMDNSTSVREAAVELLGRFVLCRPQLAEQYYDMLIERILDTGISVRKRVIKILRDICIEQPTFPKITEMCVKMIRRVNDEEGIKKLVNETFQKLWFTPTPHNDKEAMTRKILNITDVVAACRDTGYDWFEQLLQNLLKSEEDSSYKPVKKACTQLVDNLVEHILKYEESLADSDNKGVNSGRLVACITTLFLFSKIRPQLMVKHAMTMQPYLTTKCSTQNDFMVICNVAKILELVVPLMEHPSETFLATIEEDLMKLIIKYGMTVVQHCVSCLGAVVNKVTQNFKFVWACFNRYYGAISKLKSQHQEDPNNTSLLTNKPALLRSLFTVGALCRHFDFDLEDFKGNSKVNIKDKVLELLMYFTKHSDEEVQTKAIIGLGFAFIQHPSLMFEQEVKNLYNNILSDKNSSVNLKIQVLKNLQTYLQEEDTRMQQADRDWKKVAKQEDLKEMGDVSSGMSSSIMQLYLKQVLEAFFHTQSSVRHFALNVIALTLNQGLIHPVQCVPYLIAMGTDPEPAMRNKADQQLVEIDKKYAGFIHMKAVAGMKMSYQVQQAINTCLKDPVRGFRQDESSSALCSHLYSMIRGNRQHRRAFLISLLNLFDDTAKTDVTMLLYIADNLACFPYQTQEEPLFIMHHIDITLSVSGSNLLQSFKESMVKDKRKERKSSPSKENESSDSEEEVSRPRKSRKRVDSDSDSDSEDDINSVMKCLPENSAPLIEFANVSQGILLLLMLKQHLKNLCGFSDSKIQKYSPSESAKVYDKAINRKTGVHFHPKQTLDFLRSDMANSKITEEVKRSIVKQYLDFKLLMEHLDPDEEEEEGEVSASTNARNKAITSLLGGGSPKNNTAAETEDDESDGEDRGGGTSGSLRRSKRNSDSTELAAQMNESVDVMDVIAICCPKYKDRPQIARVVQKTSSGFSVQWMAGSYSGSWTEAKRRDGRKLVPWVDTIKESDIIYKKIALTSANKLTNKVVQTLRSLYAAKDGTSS

No constants are given. Whether binding was seen depends on the method and setting. Binding seen in cells or lysates may run through a third protein. Some results given as binding are weak or reduced against the parent protein; the word gives no strength.

B1: MAU2 (protein, UniProt Q9Y6X3 1-613)
chain: MAAQAAAAAQAAAAQAAQAEAADSWYLALLGFAEHFRTSSPPKIRLCVHCLQAVFPFKPPQRIEARTHLQLGSVLYHHTKNSEQARSHLEKAWLISQQIPQFEDVKFEAASLLSELYCQENSVDAAKPLLRKAIQISQQTPYWHCRLLFQLAQLHTLEKDLVSACDLLGVGAEYARVVGSEYTRALFLLSKGMLLLMERKLQEVHPLLTLCGQIVENWQGNPIQKESLRVFFLVLQVTHYLDAGQVKSVKPCLKQLQQCIQTISTLHDDEILPSNPADLFHWLPKEHMCVLVYLVTVMHSMQAGYLEKAQKYTDKALMQLEKLKMLDCSPILSSFQVILLEHIIMCRLVTGHKATALQEISQVCQLCQQSPRLFSNHAAQLHTLLGLYCVSVNCMDNAEAQFTTALRLTNHQELWAFIVTNLASVYIREGNRHQEVLYSLLERINPDHSFPVSSHCLRAAAFYVRGLFSFFQGRYNEAKRFLRETLKMSNAEDLNRLTACSLVLLGHIFYVLGNHRESNNMVVPAMQLASKIPDMSVQLWSSALLRDLNKACGNAMDAHEAAQMHQNFSQQLLQDHIEACSLPEHNLITWTDGPPPVQFQAQNGPNTSLASLL
Regarding B1, the binding entry was “binds”.

These data come from PMC13503787.
